From PubChem BioAssay AID1347423 (Functional Genomics Laboratory (NCATS/FGL), 2020)
Hit rate of the full screen: of about 52,000 sequences, about 210 (0.4%) were called active.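 The calls were made as follows: active = gene whose silencing raises cell survival under the drug, median off-target-corrected z-score across its silencing RNAs 2 or more; inactive = the rest.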 This is one part of the list.

Test: Resistance to Poly (ADP-Ribose) Polymerase inhibitor: Gene Identification via Genome-wide siRNA Screen
Settings: mouse BRCA2 R2336H ES cells, olaparib, CellTiter-Glo viability; hits give high values
Text: The role of Poly (ADP-Ribose) Polymerase (PARP) proteins in DNA repair has been elegantly utilized for the synthetic lethality-based treatment of BRCA-deficient tumors by PARP inhibitors. PARP inhibitors are now being used for treatment of BRCA-deficient breast and ovarian cancers. […] While several mechanisms of drug resistance have been identified, majority of these tumors develop drug resistance due to unknown causes. To identified novel regulators of chemo-resistance in BRCA2-mutated cells, we performed a genome wide siRNA library screen. We have found ES cells expressing a hypomorphic allele of BRCA2 to be hypersensitive to PAPP inhibitors (such as olaparib). We used ES cells expressing a mutant allele of BRCA2 that has a single amino acid substitution at position 2336 (arginine to histidine, R2336H). The screen was conducted using an Ambion (Thermo) Silencer Mouse Genome siRNA collection. The library targets 17,575 mouse genes with 3 siRNAs per gene. TET2 (E130014J05Rik) was identified as a top candidate.
Transfections were performed in 384 well plates (Corning 3707). Plates were coated with 0.1% gelatin in H2O overnight at ambient temperature. Gelatin solution was aspirated (BioTek EL406) and siRNAs were printed using a Bravo VPrep liquid handler integrated within a BioCel automation platform (Agilent). Cell viability was measured using CellTiter Glo (Promega). For transfections, […] of serum free media containing Lipofectamine RNAiMax […] was added to wells containing siRNA (0.8pmol). Lipid and siRNA were allowed to complex for 45 min at ambient temperature before addition of 1000 cells in DMEM, 30% FBS to yield final transfection mixtures containing 20 nM siRNA in DMEM, 15% FBS. PARPi (olaparib, AZD2281) was added 48 h post-transfection (500 nM) and viability (CellTiter Glo, Promega) was assayed 72 h later on a PerkinElmer Envision 2104 Multilabel plate reader. Ambion Silencer Select Negative Control #2 was incorporated on all screening plates (16 wells) and the median negative control value on each plate was used for normalization. An siRNA targeting Trp53 was used as a positive control. This control yielded a median protective effect of ~1.9 fold versus negative control throughout the screen. The median absolute deviation (MAD) based z-score was calculated for each siRNA. Genes were then ranked by taking the median value for all siRNAs tested against a given gene. Scores were also adjusted for seed-based off-target effects to help deprioritize likely false positives.

| Sequence | z-score |
| --- | --- |
| GGCUGUUUGAGAUAUUAAUTT against Def6 | inactive: 1.01 |
| CCAAAAGACCAUUGUCGUCTT against BC016495 | inactive: 0.0729 |
| GCUAACCAGUCAGUUGAUCTT against Mocs1 | inactive: 0.0786 |
| GCUUUCUGAUUCAAAGAUGTT against Dsc3 | inactive: 0.295 |
| GCGGAAGAAGGCUUGUUACTT against 4930434E21Rik | inactive: 0.906 |
| GGUCACGAUUACUUCCCUGTT against Pcdha12 | inactive: -1.4 |
| GGAUUUUUAUUCCAGAAGGTT against Fundc1 | inactive: -0.145 |
| GGAAGAGAAAGAAGAGUAATT against Tub | inactive: -1.89 |
| GGUUACCAUCAUUUAGAGATT against 2810458H16Rik | inactive: 0.0699 |
| GGUUGAUGCUGCUAUUGGGTT against Thap1 | inactive: -2.14 |
| GGCUAUGGAACAAAGUACUTT against Sostdc1 | inactive: -1.37 |
| GGGUUUCUUUGUGGUCUUGTT against Eif3s5 | inactive: -3.06 |
| GGCUUCAUCCACAUGCACUTT against Gja5 | inactive: -0.158 |
| CCUACUAGAAACUUCCUGATT against 1810009H17Rik | inactive: 0.524 |
| GGAAAUGUUUAUCACGGUUTT against Scube2 | inactive: -0.409 |
| GGCUGUUGAACAGGUUAUCTT against Misc12 | inactive: 0.309 |
| GGAAAUAAACCACCUCUUCTT against Olfr437 | inactive: -1.5 |
| GGGUUUGACUUUUUGAGGGTT against Fbxo30 | inactive: 0.23 |
| GGCUCUUAUUGAUAAAAGCTT against 2310057M21Rik | inactive: 1.29 |
| GGUGACUUGGAAGAGCCCATT against Il1rapl2 | inactive: 0.26 |
| GGAAGAUGAAAUCUUCAAATT against 2610022K04Rik | inactive: 1.09 |
| CCAUGGGCAUCAAACAUUCTT against BC049697 | inactive: -0.184 |
| CCUUCAUCGUACAUACCAUTT against Actn1 | inactive: 1.46 |
| GGAUACCACUUCAUCACCCTT against A230097C02 | inactive: -0.858 |
| GCUUUUCAUAUCUCUUGCATT against Olfr1385 | inactive: -0.352 |
| GGUACCAGGAUACGAAUAUTT against Pde10a | inactive: -1.27 |

| Sequence | z-score |
| --- | --- |
| GGUGACUGAGAAAAAUGUUTT against Gfra3 | inactive: -0.0931 |
| GGGCUAUGGUUUUAUCGAATT against 2410104I19Rik | inactive: -2.42 |
| CGACGAAUGUCCUGAACAUTT against BC022145 | inactive: -1.85 |
| GCUGUUACCUUGACGAAUATT against Tsc2 | inactive: -0.021 |
| CCCACCUUACAUAUAUUGATT against Srr | inactive: -0.793 |
| CCAGCAGCCUUCUAACUAUTT against Hnrpa2b1 | inactive: 0.399 |
| GGCCAACAAUAUAAAAGACTT against Pus3 | inactive: -0.84 |
| CCGUUAGAGCUGUUAUUUUTT against Olfr556 | inactive: 0.0968 |
| GGCAUCAACUAAACAAUCCTT against Psip1 | inactive: 1.25 |
| GGCAACGAUUGUGACUUAUTT against BC003331 | inactive: -1.5 |
| GGCAUUUGUAAUAUGGAGATT against Keo4 | inactive: 0.199 |
| GGCACACAGCCCUCAAAUUTT against Mrpl30 | inactive: -0.0287 |
| GCAUUACUGUAGGUAAGAGTT against Olfr630 | inactive: -0.617 |
| GGCUCAAGUAUCUAAUCUUTT against Tpm4 | inactive: 0.901 |
| GGAUGCAUCUUGGGUACUGTT against V1rg5 | inactive: 1.79 |
| GGAUUUGUCAAUGCAAUAATT against Olfr1012 | inactive: -0.924 |
| GGUCUUGUAUGCUAACUGGTT against D3Ertd330e | inactive: -2.53 |
| GGAGCUGAGUCCUGAUGGATT against Apod | inactive: 0.0463 |
| CCCUUCUAAAAGCUAUAAGTT against Osbpl10 | inactive: -0.412 |
| GGAGAGAAGUUUAUGAAAGTT against 9930020N01Rik | inactive: -0.653 |
| GGCAUUAUGAGCAUCUCGGTT against Tnfrsf11a | inactive: -0.308 |
| GGUCUGGGAUACUAGAGCCTT against Prap1 | inactive: 0.823 |
| CCGAACCUUCAGCUACACATT against Keap1 | inactive: -0.904 |
| CGAUUUCAUAUUAACCAGCTT against Atad1 | inactive: 1.85 |
| GGCCAAAGUCCAUUCAUUCTT against Olfr1120 | inactive: -0.107 |
| CGUAUCUGUUCAGCUGUACTT against 1810044A24Rik | inactive: -0.263 |

| Sequence | z-score |
| --- | --- |
| GGAAAAAUGAGCAGAAACUTT against 2700097O09Rik | inactive: -2.24 |
| GGAUUAAACCUUUUAACCGTT against Emilin3 | inactive: -0.236 |
| GGCGAAAAGCCGUUCCAUUTT against E430018J23Rik | inactive: 1.46 |
| CGCUCUGCCACUUUACCUUTT against 2210010C04Rik | inactive: 0.915 |
| CGCUUCAUUGAGGAUACAGTT against Acy1 | inactive: 0.669 |
| GCUUUCAGAUGAUGACAAGTT against Cdc34 | inactive: 1.43 |
| GGAUUCCUGUACAUAUAUUTT against Ube4b | inactive: -0.982 |
| GCUCACAAACUGAUUCCUUTT against 2700081O15Rik | inactive: -0.731 |
| GGCGAUAAGACAAAAAUGATT against Myom1 | inactive: -0.577 |
| GGUUAAACCCUCUUCUCAUTT against Uhrf2 | inactive: -0.0111 |
| CCUGCUUAGGACCAUCGACTT against Lrrn2 | inactive: 1.05 |
| GGCAUACAAACACAAAAUUTT against 1810021J13Rik | inactive: 0.269 |
| GGCAGAUAGUACUAAUGAATT against Spt2 | inactive: -0.336 |
| GCUAAUGAUUUCCGCUUUGTT against AW125391 | inactive: 2.01 |
| GGAGAUAUUGUAACUCGCCTT against Pcdhgb7 | inactive: 0.486 |
| CCCAACACAAUAUUUGCCATT against Nfyc | inactive: -0.801 |
| CGAUUGUUAAAGAGAUCAUTT against Pgk2 | inactive: 0.893 |
| CCUACAGUUUAUAAGCUUCTT against Olfr877 | inactive: 0.481 |
| GCUUGGAUUGAGCUUUACATT against AL024069 | inactive: -0.799 |
| GCUUACCUCCCAACUAUCATT against Dkk3 | inactive: -0.97 |
| GGAAAGAUGAGACCACCCGTT against Stau1 | inactive: 0.2 |
| CCCUGGUGACUACGAGAAUTT against Chrna4 | inactive: 0.121 |
| GAACGCGCGAGAAAUGUGATT against 2010001J22Rik | inactive: 0.842 |
| GGUUGGAUACUCGUCUUCATT against Olfr421 | inactive: -2 |
| GGCUUUGUAGCCUAGCUAGTT against Cd81 | inactive: 1.88 |
| GCUGUUUCUCUAAUAACACTT against D130011D22Rik | inactive: -0.935 |

Quoted from the listing:
Value of GAACGCGCGAGAAAUGUGATT against 2010001J22Rik under z-score: inactive: 0.842
Value of CCCAACACAAUAUUUGCCATT against Nfyc under z-score: inactive: -0.801
Value of CCUACAGUUUAUAAGCUUCTT against Olfr877 under z-score: inactive: 0.481

Remaining list, next part:

| Sequence | z-score |
| --- | --- |
| GGAUACUGUGUGGUCAUGUTT against 6330516O17Rik | inactive: -1.83 |
| GGCUCACAAUUGCUGUGUATT against Psg23 | inactive: -0.2 |
| ACAUGUCCUCUGUGCAUAUTT against LOC380997 | inactive: 0.938 |
| GGCAAAAAGGGCAUUGUCCTT against Birc1a | inactive: -1.18 |
| GGACCAGUUUGAGUAUGAGTT against 5730466P16Rik | inactive: -3.27 |
| GGAGACAAGCUUCUUUGAUTT against Abcb9 | inactive: 0.118 |
| GGAGACAUUCACUGUCUUCTT against Ephb4 | inactive: -1.12 |
| GCACAAAGACUUAAACAUCTT against Egfl6 | inactive: 1.17 |
| CCUGUAGGAUUGUUUUGAATT against Slc39a8 | inactive: 0.398 |
| CCAUGGUAGUUAAAAAUGUTT against 2600011C06Rik | inactive: -2.31 |
| CCGUGGAGUAACAAGUAUGTT against Capzb | inactive: -0.958 |
| UGGCAAGAUUGAAACCAUATT against Hnrpa3 | inactive: 1.37 |
| GGAUGAAGAUGAAAAGGAATT against Ube3a | inactive: -1.25 |
| GGCAAAAAGUAUGCCUUAGTT against Pi4k2b | inactive: -1.43 |
| GGAAAGGUUUUCAUCAACATT against 1110061L23Rik | inactive: 1.74 |
| GGCGGACAGAAAUUAUAGATT against C430013M08Rik | inactive: -1.09 |
| GGCUUGUGACUACGAAAUATT against Olfr1364 | inactive: -0.178 |
| GGCUAAUGUAUCGUCUGAGTT against Asb16 | active: 0.422 |
| GGAUUUAUCAUAUUACUGCTT against Pop1 | inactive: 0.806 |
| CGAUGACUGGACACAUUUGTT against Sqstm1 | inactive: -0.901 |
| GGGAAAACCACAAGACACUTT against Dppa4 | inactive: 1.53 |
| GGCCUGUUUUUGCAUUUUATT against 9030612E09Rik | inactive: 0.978 |
| GCGGUCUUUACUUAGAGGGTT against Bri3 | inactive: 0.445 |
| GCUUACCUUGACCAACCUCTT against Chrng | active: 1.84 |
| GGUGUACACAUAAAUAUUGTT against Prlpc1 | inactive: 0.901 |
| GGUGUUGGUGAACGUAAAGTT against Eif3s2 | inactive: -0.728 |
